Source: patent US12391686B2, “Compounds and uses thereof” (Foghorn Therapeutics Inc., priority 2019, dated 2025)
The match of structure and compound is tentative.

Experiments:
[1] = biological target: BRD9 bromodomain (Flag-BRD9 P133-K239; Swiss Prot Q9H8M2) (Homo sapiens, UniProt Q9H8M2); assay: BRD9 Bromodomain TR-FRET Competition Binding Assay; conditions: read-out: Bromodomain TR-FRET BRD9 IC50; competition with biotinylated BRD9 ligand; 90 minutes at room temperature; tested form: formic acid
Description: Procedure: His-Flag-BRD9 (P133-K239; Swiss Prot Q9H8M2; SEQ ID NO:1 mgsshhhhhhenlyfq/gdykddddkgslevlfqg/[…] […]) was cloned, expressed, purified, and then treated with TEV protease. Cleaved His tag was removed by purification. The binding of a biotinylated small molecule ligand of BRD9 was assessed via the LANCE® TR-FRET platform (PerkinElmer), and the compounds were assayed for inhibitory activity against this interaction.
Results: A mixture of biotinylated-ligand and SureLight™ Allophycocyanin-Streptavidin (APC-SA, PerkinElmer AD0201) in 50 mM HEPES (pH 7.4), 50 mM NaCl, 1 mM TCEP (pH 7), 0.01% (v/v) Tween-20, 0.01% (w/v) bovine serum albumin was added to a white 384-well PerkinElmer Proxiplate Plus plate. DMSO or 3-fold serially diluted compounds were then added to the Proxiplate followed by addition of Flag-BRD9. After a 10-minute incubation at room temperature, Eu-W1024 anti-FLAG (PerkinElmer, AD0273) was added. The final reaction mixture that contained 3.75 nM biotinylated ligand, 3 nM Flag-BRD9, 7.5 nM SureLight™ Allophycocyanin-Streptavidin, and 0.2 nM Eu-W1024 anti-FLAG was incubated at room temperature for 90 minutes.
The plates were then read on a PerkinElmer Envision plate reader to determine the ratio of emission at 665 nm over 615 nm. […]

[2] = biological target: Nanoluciferase-BRD9 fusion protein (3×FLAG-NLuc-BRD9) in SYO-1 cells (Homo sapiens, UniProt Q9H8M2); assay: SYO1 BRD9 NanoLuc Degradation Assay; conditions: read-out: SYO1 BRD9-NanoLuc degradation IC50; 6 hours; SYO-1 cells expressing 3×FLAG-NLuc-BRD9; top dose 1 μM; tested form: formic acid

## CNc1cc2c(=O)n(C)cc(-c3cc(OC)c(CN4CCC5(CC4)CN(C(=O)CCCCOc4ccc6c(c4)C(=O)N(C4CCC(=O)NC4=O)C6=O)CCO5)c(OC)c3)c2cn1 (centres unmarked)
[1]
  IC50: < 10 nM
[2]
  IC50: < 10 nM
